Results: US20070004909A1
Results are given in words; binding and its absence hold for the method and conditions named. Some results given as binding are weak or reduced against the parent protein; the word gives no strength.

By UniProt entry, the sequences of proteins in these tests, tags left out. Residues count along the entry.
UniProt P31994, residues 43-217: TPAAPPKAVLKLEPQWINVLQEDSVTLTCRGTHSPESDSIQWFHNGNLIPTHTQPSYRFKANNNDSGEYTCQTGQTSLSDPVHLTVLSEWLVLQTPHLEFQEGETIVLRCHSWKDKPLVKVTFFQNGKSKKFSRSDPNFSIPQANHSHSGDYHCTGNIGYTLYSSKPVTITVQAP

Tests used:
[1] = target: sCD32B-Ig (UniProt P31994); test: sandwich ELISA: sCD32B-Ig coated on the plate, diabody titrated, detected with labelled sCD16A; OD450
[2] = target: sCD32B-Ig (UniProt P31994); test: sandwich ELISA: sCD32B coated on the plate (figure legend), purified diabody diluted 1:25 to 1:100, HRP-conjugated sCD16A as the probe; OD450
[3] = target: sCD32B-Ig (UniProt P31994); test: sandwich ELISA: CD32B coated, HRP-conjugated CD16A probe
[4] = target: sCD32B-Ig (UniProt P31994); test: sandwich ELISA: sCD32B-Ig coated, diabody, sCD16A-biotin + streptavidin-HRP
[5] = target: sCD32B-Ig (UniProt P31994); test: sandwich ELISA of purified product: CD32B coated, HRP-conjugated CD16A probe; compared with constructs 1 and 2
[6] = target: sCD32B-Ig (UniProt P31994); test: sandwich ELISA; compared with the CBD of constructs 1 and 2 (summary of Example 6.4)

Row | binding [1] | binding [2] | binding [3] | binding [4] | binding [5] | binding [6] | Binder
1 | binds | binds | binds | binds |  |  | h2B6-h3G8 covalent bispecific diabody (CBD) (bispecific antibody) chain 1: EIVLTQSPDFQSVTPKEKVTFTCRTSQSIGTNIHWYQQKPDQSPKLLIKEVSESISGVPSRFSGSGSGTDFTLTINSLEAEDAATYYCQQSNTWPFTFGGGTKVEIKGGGSGGGGQVTLRESGPALVKPTQTLTLTCTFSGFSLSTSGMGVGWIRQPPGKALEWLAHIWWDDDKRYNPALKSRLTISKDTSKNQVVLTMTNMDPVDTATYYCAQINPAWFAYWGQGTLVTVSSLGGC chain 2: DIVMTQSPDSLAVSLGERATINCKASQSVDFDGDSFMNWYQQKPGQPPKLLIYTTSNLESGVPDRFSGSGSGTDFTLTISSLQAEDVAVYYCQQSNEDPYTFGQGTKLEIKGGGSGGGGQVQLVQSGAEVKKPGASVKVSCKASGYTFTNYWIHWVRQAPGQGLEWIGVIDPSDTYPNYNKKFKGRVTMTVVVSTSTAYMELRSLRSDDTAVYYCARNGDSDYYSGMDYWGQGTTVTVSSLGGC
2 |  | binds |  |  | binds | binds | covalent bispecific diabody of constructs 15 and 16 (pMGX0752+pMGX0753) (bispecific antibody) chain 1: EIVLTQSPDFQSVTPKEKVTFTCRTSQSIGTNIHWYQQKPDQSPKLLIKEVSESISGVPSRFSGSGSGTDFTLTINSLEAEDAATYYCQQSNTWPFTFGGGTKVEIKGGGSGGGGQVTLRESGPALVKPTQTLTLTCTFSGFSLSTSGMGVGWIRQPPGKALEWLAHIWWDDDKRYNPALKSRLTISKDTSKNQVVLTMTNMDPVDTATYYCAQINPAWFAYWGQGTLVTVSSFNRGEC chain 2: DIVMTQSPDSLAVSLGERATINCKASQSVDFDGDSFMNWYQQKPGQPPKLLIYTTSNLESGVPDRFSGSGSGTDFTLTISSLQAEDVAVYYCQQSNEDPYTFGQGTKLEIKGGGSGGGGQVQLVQSGAEVKKPGASVKVSCKASGYTFTNYWIHWVRQAPGQGLEWIGVIDPSDTYPNYNKKFKGRVTMTVVVSTSTAYMELRSLRSDDTAVYYCARNGDSDYYSGMDYWGQGTTVTVSSVEPKSC
